The nature of this data set: PAMPA-BBB assay. Format: in vitro ADME. As to the method:
BBB-PAMPA was conducted by manufacturer’s instruction (pION Inc, MA, USA). […] Transmembrane side to donor part was coated with BBB lipid solution and add 200 μL acceptor buffer in upper part of PAMPA sandwich plate.

As to `CCN(CC)CC(=O)Nc1c(C)cccc1C` [Lidocaine], the “CNS +/− classification” value (PAMPA-BBB) is “CNS + (CNS + indicates (Pe > 10))”. Moreover, where the note is “PAMPA, 25 μM, pH 7.4, 4 h, 25 °C, mean ± SD, three independent experiments, read-out: Pe”, the Papp at 4 h, 25 μM came to 19 ± 3.05 ×10⁻⁶ cm/s.

Values taken from paper PMC6742641, “Design, synthesis and biological evaluation of a series of CNS penetrant HDAC inhibitors structurally derived from amyloid-β probes” (Scientific Reports, 2019).
